{"source": "PubChem BioAssay AID2685", "about": "(National Center for Advancing Translational Sciences (NCATS), 2010)", "test": "qHTS Assay for Lipid Storage Modulators in Drosophila S3 Cells;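 for cell number change: cells counted by Cell Tracker Red CMTPX staining in the red channel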", "settings": "BODIPY lipid droplet fluorescence, 18-24 h; for cell number change: measured here: cell count max response, cells fed with added oleic acid", "procedure,_shortened": "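Laser-scanning cytometry quantifies lipid droplet accumulation (500–530 nm total intensity; droplet/cell object ratio) in oleic acid-fed (400 uM added) Drosophila S3 cells treated with a concentration series. 20 uM Triacsin C defined 100% inhibition.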", "key": {"[1]": {"settings": "measured here: lipid fluorescence (Fed channel) AC50, cells fed with added oleic acid"}, "[2]": {"settings": "measured here: cell number channel AC50, cells fed with added oleic acid"}}, "note": "The other results are listed elsewhere or left out. The main result of the screen is listed elsewhere. These columns were measured beside it and carry no call. Most of these compounds were active or inconclusive in the main read-out, so they are no random draw. Potencies come from curve fits of mixed quality, noted in brackets.", "data": [{"smiles": "CCOc1ccc(/C=C/c2nc(C#N)c(NCCCOC)o2)cc1", "values": [{"measurement": "AC50", "setting": "[1]", "value": "11.6 µM [falling, partial curve]"}]}, {"smiles": "Cc1cc(NC(=O)CSc2nnc(CNc3ccc(F)cc3)n2C2CCCCC2)no1", "values": [{"measurement": "cell number change", "value": 11.3, "unit": "%"}, {"measurement": "AC50", "setting": "[1]", "value": "0.58 µM [rising, full curve]"}]}, {"smiles": "NS(=O)(=O)c1ccc(CCNC(=O)c2ccco2)cc1", "values": [{"measurement": "cell number change", "value": -6.61, "unit": "%"}, {"measurement": "AC50", "setting": "[1]", "value": "0.164 µM [falling, full curve]"}]}, {"smiles": "CNC(=O)COC(=O)/C=C/c1cccc(F)c1", "values": [{"measurement": "cell number change", "value": 12.8, "unit": "%"}, {"measurement": "AC50", "setting": "[2]", "value": "0.00461 µM [falling, full curve, poor fit]"}]}, {"smiles": "O=C(Cn1c(=O)oc2cc(S(=O)(=O)N3CCCCCC3)ccc21)NC1CCCCCCC1", "values": [{"measurement": "cell number change", "value": -8.39, "unit": "%"}]}, {"smiles": "Cc1cccc(NC(=O)c2cccc3c2-c2ccccc2C3=O)n1", "values": [{"measurement": "cell number change", "value": -17.8, "unit": "%"}, {"measurement": "AC50", "setting": "[1]", "value": "0.355 µM [falling, single point]"}]}, {"smiles": "CC(Nc1ccc(Cl)c(Cl)c1)C(=O)NN", "note": "(stereo not drawn)", "values": [{"measurement": "cell number change", "value": 10.7, "unit": "%"}, {"measurement": "AC50", "setting": "[2]", "value": "1.84 µM [rising, single point]"}]}, {"smiles": "COCc1ccc(C(=O)N2CCCCC2C(=O)Nc2ccc(-n3nc(C)cc3C)cc2)o1", "note": "(stereo not drawn)", "values": [{"measurement": "cell number change", "value": 12.4, "unit": "%"}, {"measurement": "AC50", "setting": "[1]", "value": "0.00461 µM [rising, full curve, poor fit]"}]}, {"smiles": "COC(=O)c1ccc(CNC(=O)CN(CCC(C)C)S(=O)(=O)c2ccc3c(c2)OCCO3)cc1", "values": [{"measurement": "cell number change", "value": -27.1, "unit": "%"}, {"measurement": "AC50", "setting": "[2]", "value": "0.651 µM [falling, full curve, poor fit]"}]}, {"smiles": "O=C(O)C1CCCCC1C(=O)Nc1ccc(S(=O)(=O)N2CCCCCC2)cc1", "note": "(stereo not drawn)", "values": [{"measurement": "cell number change", "value": 21.8, "unit": "%"}, {"measurement": "AC50", "setting": "[1]", "value": "0.058 µM [falling, full curve, poor fit]"}]}, {"smiles": "Cc1ccc(NC(=O)N2CCC(O)(c3ccc(Cl)cc3)CC2)cc1", "values": [{"measurement": "cell number change", "value": -51.1, "unit": "%"}, {"measurement": "AC50", "setting": "[2]", "value": "11.6 µM [falling, partial curve]"}]}, {"smiles": "CCc1nnc(NC(=O)c2ccc(-c3ccc(F)cc3)o2)s1", "values": [{"measurement": "cell number change", "value": 19.8, "unit": "%"}, {"measurement": "AC50", "setting": "[2]", "value": "0.291 µM [rising, full curve, poor fit]"}, {"measurement": "AC50", "setting": "[1]", "value": "1.3 µM [rising, full curve]"}]}, {"smiles": "Cc1ccc(C(=O)Oc2ccc(C(=O)COC(=O)c3cnccn3)cc2)cc1", "values": [{"measurement": "cell number change", "value": -134, "unit": "%"}, {"measurement": "AC50", "setting": "[2]", "value": "20.6 µM [falling, partial curve]"}, {"measurement": "AC50", "setting": "[1]", "value": "20.6 µM [falling, partial curve]"}]}, {"smiles": "Cc1ccc(C(=O)CSc2ccc(-c3ccncc3)nn2)cc1", "values": [{"measurement": "cell number change", "value": -18.1, "unit": "%"}, {"measurement": "AC50", "setting": "[1]", "value": "0.0058 µM [falling, full curve, poor fit]"}]}, {"smiles": "Cc1nc(NC(=O)CSc2nnnn2Cc2ccccc2)sc1C", "values": [{"measurement": "cell number change", "value": -2.31, "unit": "%"}, {"measurement": "AC50", "setting": "[1]", "value": "29.1 µM [falling, single point]"}]}, {"smiles": "O=C1N(c2ccccc2C(F)(F)F)O[C@@]1(c1ccccc1)C1CCCC1", "values": [{"measurement": "cell number change", "value": 3.43, "unit": "%"}, {"measurement": "AC50", "setting": "[2]", "value": "0.731 µM [falling, single point]"}, {"measurement": "AC50", "setting": "[1]", "value": "1.03 µM [falling, single point]"}]}, {"smiles": "COc1ccc(-n2c(=S)[nH]c3cc(C(=O)NCCCN4CCOCC4)ccc3c2=O)cc1", "values": [{"measurement": "cell number change", "value": 15.8, "unit": "%"}]}, {"smiles": "O=C(Cc1cccc2ccccc12)N/N=C/c1ccc(Sc2nc3ccccc3s2)o1", "values": [{"measurement": "cell number change", "value": -0.369, "unit": "%"}, {"measurement": "AC50", "setting": "[2]", "value": "0.259 µM [falling, partial curve, poor fit]"}]}, {"smiles": "COc1cc(OC)c(NC2=NCCCCC2)cc1Cl", "values": [{"measurement": "cell number change", "value": 1.89, "unit": "%"}, {"measurement": "AC50", "setting": "[1]", "value": "29.1 µM [rising, single point]"}]}, {"smiles": "Cc1nn(Cc2ccccc2)c(Cl)c1/C=C/C(=O)OCC(=O)N1CCCC1=O", "values": [{"measurement": "cell number change", "value": 70.4, "unit": "%"}, {"measurement": "AC50", "setting": "[2]", "value": "29.1 µM [rising, single point]"}]}, {"smiles": "COc1ccc(/C([O-])=C(/C(=S)Nc2ccc(C)c(C)c2)n2c[n+](C)c3ccccc32)cc1OC", "values": [{"measurement": "cell number change", "value": 16.1, "unit": "%"}, {"measurement": "AC50", "setting": "[1]", "value": "0.164 µM [falling, full curve, poor fit]"}]}, {"smiles": "COc1cccc(N2C(=O)N(c3ccccc3Cl)C3CS(=O)(=O)CC32)c1", "note": "(stereo not drawn)", "values": [{"measurement": "cell number change", "value": -90.2, "unit": "%"}, {"measurement": "AC50", "setting": "[2]", "value": "25.9 µM [falling, partial curve, poor fit]"}, {"measurement": "AC50", "setting": "[1]", "value": "0.651 µM [falling, single point]"}]}, {"smiles": "CC1CCN(C(=O)c2nc[nH]c2C(=O)OCCNC(=O)OC(C)(C)C)CC1", "values": [{"measurement": "cell number change", "value": -3.84, "unit": "%"}]}, {"smiles": "Cc1ccc(CNCc2ccccc2Cl)cc1", "values": [{"measurement": "AC50", "setting": "[2]", "value": "6.51 µM [falling, single point]"}, {"measurement": "AC50", "setting": "[1]", "value": "16.4 µM [falling, partial curve]"}]}, {"smiles": "COc1ccc(C(c2nnnn2C(C)(C)C)N2CCN(c3nc4ccccc4s3)CC2)cc1OC", "note": "(stereo not drawn)", "values": [{"measurement": "AC50", "setting": "[2]", "value": "0.58 µM [rising, single point]"}]}, {"smiles": "Cc1ccc(CCN2CC(C(=O)NCCCN(C)Cc3ccccc3)CC2=O)cc1", "note": "(stereo not drawn)", "values": [{"measurement": "cell number change", "value": -9.5, "unit": "%"}]}, {"smiles": "COc1ccc(S(=O)(=O)NCC2CCCN(Cc3ccc(C)o3)C2)cc1", "note": "(stereo not drawn)", "values": [{"measurement": "cell number change", "value": 12, "unit": "%"}, {"measurement": "AC50", "setting": "[1]", "value": "13 µM [falling, single point]"}]}, {"smiles": "CC1=C(C#N)C(c2ccc(O)cc2)C2=C(CCCC2=O)N1", "note": "(stereo not drawn)", "values": [{"measurement": "cell number change", "value": 73.4, "unit": "%"}, {"measurement": "AC50", "setting": "[2]", "value": "25.9 µM [rising, single point]"}]}, {"smiles": "Cc1cccc(N2CC(C(=O)Nc3ccc(S(=O)(=O)N4CCCCC4)cc3)CC2=O)c1C", "note": "(stereo not drawn)", "values": [{"measurement": "cell number change", "value": 12.8, "unit": "%"}, {"measurement": "AC50", "setting": "[1]", "value": "0.58 µM [falling, partial curve, poor fit]"}]}, {"smiles": "COc1ccc(C(=O)N/N=C/c2ccc(SC)cc2)cc1", "values": [{"measurement": "cell number change", "value": 33.5, "unit": "%"}]}, {"smiles": "Cc1cnc(NC(=O)CSc2ccccc2)s1", "values": [{"measurement": "cell number change", "value": 46.5, "unit": "%"}, {"measurement": "AC50", "setting": "[2]", "value": "18.4 µM [rising, single point]"}, {"measurement": "AC50", "setting": "[1]", "value": "1.84 µM [falling, partial curve]"}]}, {"smiles": "CSc1nc(N)nc(SCC(=O)Nc2ccc(Cl)cc2)c1C#N", "values": [{"measurement": "cell number change", "value": -3.96, "unit": "%"}]}, {"smiles": "Cc1ccccc1CNC(=O)C(=O)NCC1CCCN1S(=O)(=O)c1ccccc1", "note": "(stereo not drawn)", "values": [{"measurement": "cell number change", "value": 22.7, "unit": "%"}, {"measurement": "AC50", "setting": "[1]", "value": "1.64 µM [rising, partial curve]"}]}, {"smiles": "COc1ccc(OC)c(-c2csc(NC(=O)COC(=O)C3CCC3)n2)c1", "values": [{"measurement": "cell number change", "value": 8.43, "unit": "%"}, {"measurement": "AC50", "setting": "[1]", "value": "0.058 µM [falling, full curve, poor fit]"}]}, {"smiles": "CC(C)(C)c1ccc(OCC(=O)NC2CCS(=O)(=O)C2)cc1", "note": "(stereo not drawn)", "values": [{"measurement": "cell number change", "value": 20, "unit": "%"}, {"measurement": "AC50", "setting": "[1]", "value": "13 µM [rising, partial curve]"}]}, {"smiles": "CCCn1c(SCC(=O)NC2CCCc3ccccc32)n[nH]c1=O", "note": "(stereo not drawn)", "values": [{"measurement": "AC50", "setting": "[2]", "value": "0.13 µM [rising, single point]"}]}, {"smiles": "CS(=O)(=O)N1CCC(C(=O)Nc2ccccc2Cl)CC1", "values": [{"measurement": "cell number change", "value": 3.44, "unit": "%"}, {"measurement": "AC50", "setting": "[1]", "value": "0.116 µM [rising, full curve, poor fit]"}]}, {"smiles": "O=C(O)C1CCCN1C(=O)Nc1ccccc1", "note": "(stereo not drawn)", "values": [{"measurement": "cell number change", "value": -4.01, "unit": "%"}]}, {"smiles": "COc1cccc(NC(=O)COc2cc(O)c3c(c2)OC(C)(C)CC3=O)c1", "values": [{"measurement": "cell number change", "value": -5.5, "unit": "%"}, {"measurement": "AC50", "setting": "[1]", "value": "29.1 µM [falling, single point]"}]}]}
